Data as given in PubChem BioAssay AID1259276 (Sanger Institute, 2017)
The deposit covers 794 reagents; this is an unselected part. Over the whole deposit, 24 (3%) were called active. 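Calls come only from the siRNA-alone arm; drug synergy scores do not affect them.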 Viability is capped at 1. Not given: the amount of reagent, the time to read-out.

Aim: 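Find kinases whose silencing cuts viability alone or combined with BYL719, cetuximab or trametinib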 (primary screen)
Cell system: human C2BBe1 colorectal cancer cells
Reagent: siRNA pool against human genes
Treatment: DMSO vehicle, or one anchor drug: BYL719 at 1 µM, cetuximab at 5 µg/ml, or trametinib at 10 nM; exposure length not stated
Measured: 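Viability after knock-down relative to non-targeting siRNA controls, averaged across replicates, given as ratio and control-derived robust z-score, with per-drug synergy scores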
Direction: viability robust z-score, siRNA alone and viability vs control, siRNA alone: higher = more viable cells after knock-down; synergy score with BYL719: higher = stronger combined killing with BYL719; synergy score with cetuximab: higher = stronger combined killing with cetuximab; synergy score with trametinib: higher = stronger combined killing with trametinib
Active means: 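a siRNA pool tested without drug is essential if its viability robust z-score falls under -3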
Calls: active = essential (siRNA alone); inactive = no change (siRNA alone)

| gene | viability robust z-score, siRNA alone | viability vs control, siRNA alone | synergy score with BYL719 | synergy score with cetuximab | synergy score with trametinib | outcome |
| --- | --- | --- | --- | --- | --- | --- |
| BMPR2 | -1.69 | 0.864 | -0.236 | -0.0599 | -0.0786 | inactive |
| EPHB1 | 0.472 | 1 | 0.0274 | 0.19 | 0.0677 | inactive |
| GTF2H1 | 0.472 | 1 | 0.19 | 0.27 | 0.261 | inactive |
| LMBR1 | 0.472 | 1 | 0.00306 | -0.0115 | -0.0667 | inactive |
| FGFRL1 | 0.472 | 1 | -0.0411 | 0.14 | 0.00405 | inactive |
| SMG1 | 0.472 | 1 | -0.142 | -0.0115 | -0.0299 | inactive |
| CDKN1C | 0.472 | 1 | -0.142 | -0.0115 | -0.0667 | inactive |
| BCR | -0.753 | 0.923 | 0.0328 | -0.0364 | 0.0318 | inactive |
| POMK | 0.472 | 1 | -0.139 | -0.0115 | 0.0573 | inactive |
| OXSR1 | 0.159 | 0.98 | -0.0222 | 0.0564 | -0.0805 | inactive |
| SRPK1 | 0.472 | 1 | 0.0715 | 0.0552 | -0.0667 | inactive |
| CHD4 | 0.472 | 1 | 0.191 | -0.0115 | -0.0667 | inactive |
| CSNK1D | 0.472 | 1 | -0.0457 | 0.165 | 0.0099 | inactive |
| PAK1 | 0.472 | 1 | 0.305 | 0.106 | -0.0667 | inactive |
| WNK4 | 0.472 | 1 | -0.0123 | 0.121 | 0.0177 | inactive |
| LRRK1 | 0.472 | 1 | 0.0456 | -0.0115 | -0.0388 | inactive |
| MYLK4 | 0.472 | 1 | -0.123 | -0.0115 | -0.00963 | inactive |
| DCLK3 | 0.472 | 1 | -0.00257 | -0.0115 | -0.0667 | inactive |
| MAPK1 | 0.472 | 1 | 0.172 | 0.0189 | 0.00362 | inactive |
| ULK4 | 0.472 | 1 | 0.261 | 0.0985 | 0.0966 | inactive |
| DUSP21 | 0.472 | 1 | -0.142 | -0.0115 | -0.0667 | inactive |
| LRRK2 | 0.472 | 1 | -0.142 | 0.0129 | -0.0667 | inactive |
| ULK3 | 0.472 | 1 | -0.142 | -0.0115 | 0.00557 | inactive |
| MAGI1 | 0.472 | 1 | 0.113 | 0.0995 | 0.0466 | inactive |
| KDR | 0.472 | 1 | -0.0453 | -0.0115 | -0.0667 | inactive |
| ITSN1 | 0.472 | 1 | -0.0311 | -0.0115 | -0.0667 | inactive |
| STK10 | -0.396 | 0.945 | -0.0464 | -0.0656 | -0.085 | inactive |
| CDADC1 | 0.15 | 0.98 | -0.159 | 0.0374 | -0.0857 | inactive |
| LMTK3 | -2.11 | 0.837 | 0.0237 | 0.0996 | -0.0847 | inactive |
| MGA | -0.586 | 0.933 | -0.0687 | 0.0115 | -0.0177 | inactive |
| ULK1 | 0.472 | 1 | -0.114 | -0.0115 | -0.0667 | inactive |
| MAPK14 | 0.169 | 0.981 | 0.141 | 0.0526 | 0.0283 | inactive |
| VRK3 | -3.21 | 0.768 | -0.126 | -0.241 | -0.113 | active |
| SLK | 0.472 | 1 | -0.0752 | -0.0115 | -0.0667 | inactive |
| CSNK2A1 | 0.472 | 1 | -0.142 | -0.0115 | -0.0424 | inactive |
| MYLK2 | -1.16 | 0.897 | -0.016 | 0.0348 | 0.222 | inactive |
| TSSK4 | 0.472 | 1 | -0.0622 | 0.0595 | -0.0474 | inactive |
| MUSK | -1.6 | 0.869 | 0.05 | -0.141 | -0.106 | inactive |
| HUS1 | 0.472 | 1 | -0.102 | 0.192 | -0.0142 | inactive |
| KHK | 0.472 | 1 | 0.00861 | -0.0115 | 0.0267 | inactive |
| STK31 | 0.472 | 1 | 0.00113 | -0.0115 | -0.0667 | inactive |
| TSSK3 | -0.286 | 0.952 | -0.0565 | -0.0379 | -0.0982 | inactive |

Hits (from the list above):
| gene | viability robust z-score, siRNA alone | viability vs control, siRNA alone | synergy score with BYL719 | synergy score with cetuximab | synergy score with trametinib | outcome |
| --- | --- | --- | --- | --- | --- | --- |
| VRK3 | -3.21 | 0.768 | -0.126 | -0.241 | -0.113 | active |

Further records:
| gene | viability robust z-score, siRNA alone | viability vs control, siRNA alone | synergy score with BYL719 | synergy score with cetuximab | synergy score with trametinib | outcome |
| --- | --- | --- | --- | --- | --- | --- |
| CIT | 0.472 | 1 | 0.00248 | -0.0115 | -0.0667 | inactive |
| NUAK2 | 0.472 | 1 | -0.0275 | 0.00089 | -0.0439 | inactive |
| TBCK | 0.472 | 1 | 0.0734 | 0.066 | -0.0667 | inactive |
| SRGAP3 | 0.472 | 1 | -0.142 | -0.0115 | -0.0667 | inactive |
| SPHK2 | 0.472 | 1 | -0.113 | -0.0115 | -0.0667 | inactive |
| TGFBR1 | 0.472 | 1 | -0.142 | -0.0115 | 0.0106 | inactive |
| RNASEL | 0.472 | 1 | -0.142 | -0.0115 | -0.0667 | inactive |
| NME2 | 0.472 | 1 | -0.0656 | 0.0746 | -0.0667 | inactive |
| GSK3A | -1.56 | 0.872 | 0.102 | -0.00363 | -0.0681 | inactive |
| STK17B | 0.472 | 1 | 0.0759 | 0.00321 | -0.0667 | inactive |
| GRK5 | 0.472 | 1 | -0.115 | -0.0115 | -0.0667 | inactive |
| ACVR1 | 0.472 | 1 | 0.108 | 0.0571 | -0.0667 | inactive |
| MAP2K3 | 0.472 | 1 | 0.28 | -0.0115 | -0.0667 | inactive |
| CAMK4 | 0.472 | 1 | -0.142 | 0.00354 | -0.0667 | inactive |
| ANKK1 | 0.472 | 1 | 0.179 | -0.0115 | -0.0667 | inactive |
| IGF1R | 0.472 | 1 | -0.142 | 0.0854 | -0.0667 | inactive |
| SOX9 | 0.472 | 1 | -0.142 | -0.0115 | 0.0419 | inactive |
| MARK4 | 0.472 | 1 | 0.191 | -0.0115 | -0.0084 | inactive |
| SOS2 | 0.472 | 1 | -0.0355 | -0.0115 | -0.0667 | inactive |
| PKDCC | -1.06 | 0.903 | 0.00818 | -0.107 | -0.157 | inactive |
| PI4K2A | -0.207 | 0.957 | 0.0147 | 0.183 | -0.107 | inactive |
